Values quoted from earlier work, collected in patent publication EP4497440A1, “USE OF 7-TRIFLUOROMETHYL-7ALPHA,25-DIHYDROXYCHOLESTEROL IN THE TREATMENT AND MODULATION OF AUTOIMMUNE AND INFLAMMATORY DISEASES OF THE NERVOUS SYSTEM AND NEURODEGENERATIVE DISEASES” (Gdanski Uniwersytet Medyczny, priority 2023, dated 2025).
At least one structure is not confirmed: it was looked up by name or label, or the drawing left a doubt.

System: lymphocytes
Details: patients suffering from MS, following two weeks of therapy, reference [7]; cited from earlier work

Q: Which “total lymphocyte count dropped by” value does the source give for CCCCCCCCc1ccc(CCC(N)(CO)CO)cc1 [fingolimod] here?
A: The value was 70%.
